Results are given in words; binding and its absence hold for the method and conditions named. Some entries that bind do so weakly or less than the wild type.
Biological target: human STK33 kinase domain (serine/threonine kinase 33) (human) (UniProt Q9BYT3)
Assay: crystal structure; co-crystal of the STK33 kinase domain with the inhibitor CDD-2211, 2.7 Å; one dimer per asymmetric unit; both purified

B1: human STK33 kinase domain (serine/threonine kinase 33) (domain or fragment, UniProt Q9BYT3 99-383)
chain: GKVPHIRIENGAAIEEIYTFGRILGKGSFGIVIEATDKETETKWAIKKVNKEKAGSSAVKLLEREVNILKSVKHEHIIHLEQVFETPKKMYLVMELCEDGELKEILDRKGHFSENETRWIIQSLASAIAYLHNNDIVHRDLKLENIMVKSSLIDDNNEINLNIKVTDFGLAVKKQSRSEAMLQATCGTPIYMAPEVISAHDYSQQCDIWSIGVVMYMLLRGEPPFLASSEEKLFELIRKGELHFENAVWNSISDCAKSVLKQLMKVDPAHRITAKELLDNQWLTG
  binding: binds
